From patent publication US12606523B2, “Deuterated organic compounds and uses thereof” (ENGRAIL THERAPEUTICS, INC., priority 2022, dated 2026) come the findings set out here.

Amino acid sequences for entries named in this document (tags omitted).
UniProt P28223, whole entry: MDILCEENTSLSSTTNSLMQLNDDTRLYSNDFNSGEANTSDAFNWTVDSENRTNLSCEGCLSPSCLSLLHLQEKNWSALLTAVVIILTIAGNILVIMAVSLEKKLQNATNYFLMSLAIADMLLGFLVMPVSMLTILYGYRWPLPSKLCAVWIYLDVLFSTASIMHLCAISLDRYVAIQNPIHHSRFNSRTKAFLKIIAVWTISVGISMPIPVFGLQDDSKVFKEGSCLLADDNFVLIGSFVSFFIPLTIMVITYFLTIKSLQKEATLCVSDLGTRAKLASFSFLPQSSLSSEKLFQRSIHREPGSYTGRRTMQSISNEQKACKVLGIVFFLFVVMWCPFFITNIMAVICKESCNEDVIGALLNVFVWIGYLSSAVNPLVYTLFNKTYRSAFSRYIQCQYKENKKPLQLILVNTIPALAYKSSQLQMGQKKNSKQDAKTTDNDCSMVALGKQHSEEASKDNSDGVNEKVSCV

The target of test [1] is T1, human Serotonin 5-HT2A receptor (Homo sapiens, UniProt P28223). Put plainly: IP-One HTRF functional assay, antagonist mode. It counts as cell-based. Details: expressed in transfected cells; host or cells: CHO-K1. (In TR-FRET formats the signal depends on donor and acceptor labels being close together.)
For test [2], the target named is T1, human Serotonin 5-HT2A receptor. The test is described as follows: Radioligand binding competition, filtration, [3H]-Ketanserin, CHO-K1 membranes. Also noted: expressed in transfected cells; host or cells: CHO-K1.
Test [3] shares this target. The test is described as follows: cell-based. Conditions: 5-HT2A (agonist mode) EC50, IP-one.

Several values for one entry are separate records, joined by “and”; a condition that tells them apart may be missing. Identical values can stand only once.

As a reminder, the EC50 is the concentration that produces a half-maximal response. Higher therefore signals weaker potency. As for `CNc1cc(OC)c(C(=O)N[C@H]2CCN(Cc3ccccc3)[C@H]2C)cc1Cl` (racemic) [Nemonapride, (±)-cis-N-(1-Benzyl-2-methylpyrrolidin-3-yl)-5-chloro-2-methoxy-4-methylaminobenzamide], the midpoint of the response in test [1], the EC50, lay at 6.5 nM.
As a reminder, the IC50 is the midpoint of a concentration-inhibition curve. A high value points to a need for much substance. Broadly, the Ki is a measure of affinity in units of concentration, obtained from inhibition or displacement. Low values mean higher affinity, high ones lower affinity. Turning to `[2H]C([2H])([2H])Nc1cc(OC)c(C(=O)N[C@H]2CCN(C([2H])([2H])c3ccccc3)[C@H]2C)cc1Cl` [Example A1, 5-Chloro-N-((2S,3S)-1-(dideutero(phenyl)methyl)-2-methylpyrrolidin-3-yl)-2-methoxy-4-(trideuteromethylamino)benzamide], the 50% inhibitory concentration (IC50) in test [2] is 16.4 nM and 16 nM and 16.8 nM. Moreover, in test [2], the inhibition constant Ki was 3.7 nM. Moreover, the EC50 in test [3] is 2.5 nM and 1.26 nM and 5.2 nM and 1.15 nM; in test [1], 14.1 nM and 24 nM and 4.26 nM.
Consider `CNc1cc(OC)c(C(=O)N[C@H]2CCN(Cc3ccccc3)[C@H]2C)cc1Cl` [cis (S,S) nemonapride, N-[(2S,3S)-1-benzyl-2-methylpyrrolidin-3-yl]-5-chloro-2-methoxy-4-(methylamino)benzamide, reference compound], for which, in test [2], the half-inhibitory concentration (IC50) stood at 13 nM and the Ki came to 2.9 nM. The EC50 in test [3] is 2.8 nM. The compound further showed an EC50 in test [1] of 2.4 nM.
